In the supplement of paper PMC12819154, “High-throughput peptide-centric local stability assay extends protein–ligand identification to membrane proteins, tissues and bacteria” (Nature Structural & Molecular Biology, 2025):
Some of the results follow. Small differences around the control level are noise.

Amino acid sequences for entries named in this document (tags omitted). A change or cut given only in a name is not applied to a line headed by its entry.
UniProt Q9R0L7: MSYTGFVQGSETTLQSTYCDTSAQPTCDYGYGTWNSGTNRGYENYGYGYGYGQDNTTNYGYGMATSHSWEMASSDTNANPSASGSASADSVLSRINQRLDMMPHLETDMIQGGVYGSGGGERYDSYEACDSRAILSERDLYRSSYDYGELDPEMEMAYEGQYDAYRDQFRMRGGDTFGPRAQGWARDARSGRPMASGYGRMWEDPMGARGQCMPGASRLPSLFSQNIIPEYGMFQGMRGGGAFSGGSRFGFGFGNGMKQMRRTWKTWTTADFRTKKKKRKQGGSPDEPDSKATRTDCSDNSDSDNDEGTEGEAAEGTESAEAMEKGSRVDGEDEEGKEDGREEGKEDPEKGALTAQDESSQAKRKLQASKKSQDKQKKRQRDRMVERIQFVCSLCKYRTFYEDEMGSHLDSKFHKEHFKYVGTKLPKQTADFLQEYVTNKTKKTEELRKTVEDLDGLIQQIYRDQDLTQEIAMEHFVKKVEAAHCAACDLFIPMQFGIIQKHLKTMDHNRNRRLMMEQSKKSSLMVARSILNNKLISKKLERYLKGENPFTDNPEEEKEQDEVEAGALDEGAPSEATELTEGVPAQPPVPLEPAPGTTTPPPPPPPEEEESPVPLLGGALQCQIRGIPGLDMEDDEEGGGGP
UniProt Q9QY36: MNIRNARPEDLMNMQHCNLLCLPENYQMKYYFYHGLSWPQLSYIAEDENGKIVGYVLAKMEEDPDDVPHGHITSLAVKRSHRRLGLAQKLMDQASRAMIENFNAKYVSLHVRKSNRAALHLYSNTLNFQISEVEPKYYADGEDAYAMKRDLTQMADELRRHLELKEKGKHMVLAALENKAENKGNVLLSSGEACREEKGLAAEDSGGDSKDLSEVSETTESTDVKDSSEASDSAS
UniProt Q9QXC1: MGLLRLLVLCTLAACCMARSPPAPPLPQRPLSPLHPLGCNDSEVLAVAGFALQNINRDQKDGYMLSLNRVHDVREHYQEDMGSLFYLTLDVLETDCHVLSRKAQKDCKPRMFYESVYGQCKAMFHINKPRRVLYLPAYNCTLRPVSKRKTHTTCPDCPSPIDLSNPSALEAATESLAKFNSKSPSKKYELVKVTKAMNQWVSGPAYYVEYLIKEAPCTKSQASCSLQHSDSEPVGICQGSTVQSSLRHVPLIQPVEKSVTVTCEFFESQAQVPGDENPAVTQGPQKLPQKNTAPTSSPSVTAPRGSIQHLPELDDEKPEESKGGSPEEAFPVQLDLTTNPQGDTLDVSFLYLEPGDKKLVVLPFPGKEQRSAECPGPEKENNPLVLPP
UniProt Q9QZN1, whole entry: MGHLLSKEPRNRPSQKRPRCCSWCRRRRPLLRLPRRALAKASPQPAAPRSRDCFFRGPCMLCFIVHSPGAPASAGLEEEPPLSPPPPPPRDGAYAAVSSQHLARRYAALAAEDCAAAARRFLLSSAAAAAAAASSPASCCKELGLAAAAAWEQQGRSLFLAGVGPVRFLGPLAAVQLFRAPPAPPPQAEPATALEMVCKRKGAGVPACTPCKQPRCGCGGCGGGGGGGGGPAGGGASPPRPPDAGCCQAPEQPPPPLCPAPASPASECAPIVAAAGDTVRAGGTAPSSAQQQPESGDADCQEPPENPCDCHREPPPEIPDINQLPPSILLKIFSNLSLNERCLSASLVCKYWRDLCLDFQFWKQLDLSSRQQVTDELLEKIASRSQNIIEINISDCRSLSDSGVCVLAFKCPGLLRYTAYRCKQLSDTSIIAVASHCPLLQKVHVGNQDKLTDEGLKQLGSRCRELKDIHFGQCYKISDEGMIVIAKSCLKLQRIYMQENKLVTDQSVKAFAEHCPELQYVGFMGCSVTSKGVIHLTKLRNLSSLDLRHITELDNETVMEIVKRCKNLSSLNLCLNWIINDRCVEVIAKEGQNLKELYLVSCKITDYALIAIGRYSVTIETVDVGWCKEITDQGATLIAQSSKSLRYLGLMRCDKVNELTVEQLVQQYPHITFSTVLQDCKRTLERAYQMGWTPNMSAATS
UniProt Q9WTL7: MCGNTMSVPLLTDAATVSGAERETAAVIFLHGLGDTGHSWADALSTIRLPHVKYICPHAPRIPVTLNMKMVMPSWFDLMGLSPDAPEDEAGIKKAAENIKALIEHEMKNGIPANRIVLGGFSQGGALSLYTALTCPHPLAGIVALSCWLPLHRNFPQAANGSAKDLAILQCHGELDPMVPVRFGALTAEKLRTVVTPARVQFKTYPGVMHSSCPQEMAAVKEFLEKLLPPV
UniProt Q9QZM0, whole entry: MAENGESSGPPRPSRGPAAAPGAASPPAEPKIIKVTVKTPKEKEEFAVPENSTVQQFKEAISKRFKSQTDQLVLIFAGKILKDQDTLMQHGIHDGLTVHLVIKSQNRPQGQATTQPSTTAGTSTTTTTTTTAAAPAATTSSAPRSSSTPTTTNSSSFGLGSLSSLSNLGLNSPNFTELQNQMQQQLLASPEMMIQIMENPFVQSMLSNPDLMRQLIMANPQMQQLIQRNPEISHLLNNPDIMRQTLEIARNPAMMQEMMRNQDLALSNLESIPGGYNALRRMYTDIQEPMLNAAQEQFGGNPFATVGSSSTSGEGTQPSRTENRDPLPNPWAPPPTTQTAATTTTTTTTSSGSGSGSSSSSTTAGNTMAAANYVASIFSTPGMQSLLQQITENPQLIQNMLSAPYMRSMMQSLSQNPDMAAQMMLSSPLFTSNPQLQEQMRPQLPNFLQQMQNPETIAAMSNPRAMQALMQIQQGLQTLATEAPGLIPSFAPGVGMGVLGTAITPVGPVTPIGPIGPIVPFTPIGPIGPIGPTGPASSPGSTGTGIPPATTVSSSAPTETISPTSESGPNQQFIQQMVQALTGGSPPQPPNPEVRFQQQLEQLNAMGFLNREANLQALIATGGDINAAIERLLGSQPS
UniProt Q9QXY6: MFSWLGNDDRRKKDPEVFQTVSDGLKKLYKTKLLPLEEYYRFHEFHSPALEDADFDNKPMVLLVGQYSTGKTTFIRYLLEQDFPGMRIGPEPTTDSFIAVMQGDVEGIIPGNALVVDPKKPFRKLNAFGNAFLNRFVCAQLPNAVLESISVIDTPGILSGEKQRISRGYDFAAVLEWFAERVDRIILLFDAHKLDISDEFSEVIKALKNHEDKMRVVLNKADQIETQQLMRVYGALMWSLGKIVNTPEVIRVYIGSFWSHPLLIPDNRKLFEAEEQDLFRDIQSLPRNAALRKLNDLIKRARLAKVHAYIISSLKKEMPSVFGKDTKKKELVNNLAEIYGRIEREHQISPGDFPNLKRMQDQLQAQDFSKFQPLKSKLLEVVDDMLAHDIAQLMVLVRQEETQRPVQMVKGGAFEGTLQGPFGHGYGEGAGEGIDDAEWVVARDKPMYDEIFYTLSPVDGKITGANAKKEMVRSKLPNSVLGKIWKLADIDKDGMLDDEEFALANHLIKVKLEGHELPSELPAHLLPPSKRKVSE
UniProt Q9QZH6: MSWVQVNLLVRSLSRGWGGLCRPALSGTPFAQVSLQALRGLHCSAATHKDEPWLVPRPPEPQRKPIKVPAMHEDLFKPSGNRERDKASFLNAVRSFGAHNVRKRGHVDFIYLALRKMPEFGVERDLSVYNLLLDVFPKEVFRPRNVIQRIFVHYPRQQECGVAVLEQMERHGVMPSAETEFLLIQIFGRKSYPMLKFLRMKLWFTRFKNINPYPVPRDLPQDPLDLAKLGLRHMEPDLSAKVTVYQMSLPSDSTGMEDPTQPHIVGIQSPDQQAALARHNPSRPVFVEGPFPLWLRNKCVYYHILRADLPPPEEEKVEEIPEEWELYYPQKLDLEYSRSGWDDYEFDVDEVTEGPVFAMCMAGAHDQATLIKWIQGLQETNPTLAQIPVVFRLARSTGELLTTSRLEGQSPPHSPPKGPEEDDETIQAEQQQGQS
UniProt Q9R1J0: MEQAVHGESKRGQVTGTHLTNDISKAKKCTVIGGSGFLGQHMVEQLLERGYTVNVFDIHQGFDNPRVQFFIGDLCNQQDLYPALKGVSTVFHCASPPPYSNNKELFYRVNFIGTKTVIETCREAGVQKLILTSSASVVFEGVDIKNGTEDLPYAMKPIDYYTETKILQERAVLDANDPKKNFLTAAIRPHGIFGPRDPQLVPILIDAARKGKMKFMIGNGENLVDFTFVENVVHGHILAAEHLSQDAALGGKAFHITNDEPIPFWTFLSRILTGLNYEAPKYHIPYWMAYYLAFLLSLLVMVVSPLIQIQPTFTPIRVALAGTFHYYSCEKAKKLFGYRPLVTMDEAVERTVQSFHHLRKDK
UniProt Q9R0Q9: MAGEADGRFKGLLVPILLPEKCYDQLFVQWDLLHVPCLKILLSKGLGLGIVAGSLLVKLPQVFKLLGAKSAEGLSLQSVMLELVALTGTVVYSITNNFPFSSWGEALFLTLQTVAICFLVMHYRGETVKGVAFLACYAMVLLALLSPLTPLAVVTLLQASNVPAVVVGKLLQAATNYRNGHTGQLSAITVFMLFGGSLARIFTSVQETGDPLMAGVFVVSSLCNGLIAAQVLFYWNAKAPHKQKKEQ

What follows are targets tested with CN[C@@H]1C[C@H]2O[C@@](C)([C@@H]1OC)n1c3ccccc3c3c4c(c5c6ccccc6n2c5c31)C(=O)NC4 [staurosporine] (assay: log2 fold change of tryptic peptide abundance, ligand vs vehicle (limited proteolysis) (log2 ratio); higher = more trypsin-susceptible (destabilized)). Settings: ligand concentration: 20 uM; sample: mouse liver crude lysate; replicate design: treated separately.

| Target | log2 fold change |
| --- | --- |
| UniProt Q9R0L7 (peptide sequence: GALTAQDESSQAKR, peptide start residue: 351) | -0.637 |
| UniProt Q9QY36 (peptide sequence: YVSLHVR, peptide start residue: 106) | 0.215 |
| UniProt Q9QXC1 (peptide sequence: LVVLPFPGKEQR, peptide start residue: 359) | 0.133 |
| UniProt Q9QZN1 (peptide sequence: GAGVPACTPCKQPR, peptide start residue: 202) | 0.262 |
| UniProt Q9WTL7 (peptide sequence: YICPHAPR, peptide start residue: 54) | -0.228 |
| UniProt Q9QZM0 (peptide sequence: NPEISHLLNNPDIMR, peptide start residue: 229) | -0.0941 |
| UniProt Q9QXY6 (peptide sequence: VYIGSFWSHPLLIPDNRK, peptide start residue: 252) | 0.215 |
| UniProt Q9QZH6 (peptide sequence: KMPEFGVER, peptide start residue: 116) | 0.338 |
| UniProt Q9R1J0 (peptide sequence: AVLDANDPKK, peptide start residue: 171) | -0.367 |
| UniProt Q9R0Q9 (peptide sequence: LLQAATNYR, peptide start residue: 170) | 0.192 |

Taken from above.
Entry for UniProt Q9QXC1 (peptide sequence: LVVLPFPGKEQR, peptide start residue: 359) under log2 fold change: 0.133
Entry for UniProt Q9QY36 (peptide sequence: YVSLHVR, peptide start residue: 106) under log2 fold change: 0.215
